The source of these data is publication PMC6469676 (SLAS discovery : advancing life sciences R & D, 2018).

Structures are written as SMILES.

The subject of this data set is Vero E6 cells.

For the molecule `COC(=O)C1=C(C)NC(C)=C(C(=O)OC)C1c1ccccc1[N+](=O)[O-]` [nifedipine], the “cytopathic effects after 24 hours” value is given as “minimal cytopathic effects”.
